Measurements reported in publication PMC3382597.
These are yes or no findings as the source states them, for the method shown. Some entries that bind do so weakly or less than the wild type.

Target: peroxiredoxin 3 (PRX3), endogenous in HM malignant mesothelioma cells (human (endogenous in HM cells)) (UniProt P30048)
Assay: non-reducing denaturing SDS-PAGE with immunoblot; HM cells treated with increasing thiostrepton (TS) for 18 hr; extracts prepared without reducing agents, 20 µg protein/lane, denaturing but not reducing gel that preserves disulfide bonds; PRX3 monomers against disulfide-bonded dimers by immunoblot

B1: peroxiredoxin 3 (PRX3), endogenous in HM malignant mesothelioma cells (protein, UniProt P30048 62-256)
chain: APAVTQHAPYFKGTAVVNGEFKDLSLDDFKGKYLVLFFYPLDFTFVCPTEIVAFSDKANEFHDVNCEVVAVSVDSHFSHLAWINTPRKNGGLGHMNIALLSDLTKQISRDYGVLLEGSGLALRGLFIIDPNGVIKHLSVNDLPVGRSVEETLRLVKAFQYVETHGEVCPANWTPDSPTIKPSPAASKEYFQKVNQ
- binding: binds
